{"source": "PubChem BioAssay AID330", "about": "(DTP/NCI, 2004)", "system": "P388 leukemia ip, CD2F1 mice, survival T/C", "assay": "NCI In Vivo Anticancer Drug Screen. Data for tumor model P388 Leukemia (intraperitoneal) in CD2F1 (CDF1) mice", "settings": "T/C endpoint: median survival time, higher T/C = longer survival", "key": {"[1]": {"settings": "dose: 120.0 mg/kg/injection, schedule: Q01DX005 (ip), vehicle: saline with Tween-80"}, "[2]": {"settings": "dose: 240.0 mg/kg/injection, schedule: Q01DX005 (ip), vehicle: saline with Tween-80"}, "[3]": {"settings": "dose: 200.0 mg/kg/injection, schedule: Q01DX005 (ip), vehicle: saline with Tween-80"}}, "note": "The list does not hold the whole screen: it gathers tests that were run many times, whatever their T/C, doses with no T/C, and many T/C values between a quarter and a half above the control. Further doses and runs are listed elsewhere. T/C is the treated group as % of the vehicle group. Some entries give survivors of the animals treated and no T/C: the source holds a T/C of zero for them, seemingly a mark for toxic or unscored doses. Some survivor counts are full or nearly so, which does not show that the dose was tolerated: the source hardly ever lists a survival T/C far under the control, and the zero likely stands for such cases as well. Survivors were counted at the toxicity check, usually on the fifth day, unless a day is given; later deaths do not show. Schedule codes are those of the source, read here as Q, the interval in days (D) or hours (H), X, the number of doses. Where survival is the endpoint, the PubChem record calls one and a half times the control and up active, and a quarter to a half above the control has no call in these data; cut-offs in other NCI protocols can differ. Some entries were tested several times; the results are listed from low to high."}
{"compound": "COc1cccc(C[n+]2ccccc2C#N)c1OC", "values": [{"measurement": "survivor count", "setting": "dose: 25.0 mg/kg/injection, schedule: Q04DX002 (ip), vehicle: saline", "result": "0 of 6"}, {"measurement": "survivor count", "setting": "dose: 50.0 mg/kg/injection, schedule: Q04DX002 (ip), vehicle: saline", "result": "0 of 6"}, {"measurement": "survivor count", "setting": "dose: 100.0 mg/kg/injection, schedule: Q01DX002 (ip), vehicle: saline", "result": "0 of 5"}, {"measurement": "survivor count", "setting": "dose: 100.0 mg/kg/injection, schedule: Q04DX002 (ip), vehicle: saline", "result": "0 of 6"}, {"measurement": "survivor count", "setting": "dose: 200.0 mg/kg/injection, schedule: Q01DX002 (ip), vehicle: saline", "result": "0 of 5"}, {"measurement": "survivor count", "setting": "dose: 200.0 mg/kg/injection, schedule: Q04DX002 (ip), vehicle: saline", "result": "0 of 6"}, {"measurement": "survivor count", "setting": "dose: 400.0 mg/kg/injection, schedule: Q01DX002 (ip), vehicle: saline", "result": "0 of 5"}, {"measurement": "survivor count", "setting": "dose: 400.0 mg/kg/injection, schedule: Q04DX002 (ip), vehicle: saline", "result": "0 of 6"}]}
{"compound": "Cn1c(=O)c2[nH]c(C3COCCO3)nc2n(C)c1=O", "note": "(stereo unspecified)", "values": [{"measurement": "survivor count", "setting": "[1]", "result": "6 of 6"}]}
{"compound": "C=C(C(N)=O)C(N)C(=O)O", "note": "(stereo unspecified)", "values": [{"measurement": "T/C", "setting": "dose: 60.0 mg/kg/injection, schedule: Q01DX005 (ip), vehicle: saline with Tween-80", "result": "125 % of control"}, {"measurement": "T/C", "setting": "[1]", "result": "131 and 134 % of control"}, {"measurement": "T/C", "setting": "[2]", "result": "137 % of control"}, {"measurement": "survivor count", "setting": "[2]", "result": "0 of 6"}, {"measurement": "survivor count", "setting": "dose: 480.0 mg/kg/injection, schedule: Q01DX005 (ip), vehicle: saline with Tween-80", "result": "0 of 6"}]}
{"compound": "Cc1ccc(NC2=C([n+]3ccc(C)cc3)C(=O)c3ccccc3C2=O)cc1", "values": [{"measurement": "survivor count", "setting": "dose: 50.0 mg/kg/injection, schedule: Q01DX005 (ip), vehicle: saline with Tween-80", "result": "0 of 6"}, {"measurement": "survivor count", "setting": "dose: 100.0 mg/kg/injection, schedule: Q01DX005 (ip), vehicle: saline with Tween-80", "result": "0 of 6"}, {"measurement": "survivor count", "setting": "[3]", "result": "0 of 6"}]}
{"compound": "C#CCC(B1OCCO1)B1OCCO1", "values": [{"measurement": "survivor count", "setting": "dose: 100.0 mg/kg/injection, schedule: Q01DX001 (ip), vehicle: saline", "result": "5 of 6"}]}
{"compound": "COc1ccc(CCC#N)cc1OC", "values": [{"measurement": "survivor count", "setting": "dose: 400.0 mg/kg/injection, schedule: Q01DX009 (ip), vehicle: other", "result": "3 of 6"}]}
{"compound": "O=c1[nH]c2ccccc2c2cc3ccccc3cc12", "values": [{"measurement": "survivor count", "setting": "dose: 50.0 mg/kg/injection, schedule: Q01DX009 (ip), vehicle: saline with Tween-80", "result": "6 of 6"}]}
{"compound": "CS(=O)(=O)O/C=C1\\C(=O)OC2CCCCC12", "note": "(stereo unspecified)", "values": [{"measurement": "T/C", "setting": "dose: 150.0 mg/kg/injection, schedule: Q01DX009 (ip), vehicle: distilled water + Tween-80", "result": "125 % of control"}, {"measurement": "T/C", "setting": "dose: 300.0 mg/kg/injection, schedule: Q01DX009 (ip), vehicle: distilled water + Tween-80", "result": "125 % of control"}]}
{"compound": "CC1=CCN(C)C(C#N)C1", "note": "(stereo unspecified)", "values": [{"measurement": "survivor count", "setting": "dose: 50.0 mg/kg/injection, schedule: Q01DX005 (ip), vehicle: saline", "result": "3 of 5"}, {"measurement": "survivor count", "setting": "dose: 100.0 mg/kg/injection, schedule: Q01DX005 (ip), vehicle: saline", "result": "0 of 5"}, {"measurement": "survivor count", "setting": "dose: 200.0 mg/kg/injection, schedule: Q01DX005 (ip), vehicle: saline", "result": "0 of 5"}]}
{"compound": "CC(=O)Nc1ccc(Nc2nc(Cl)nc(Nc3ccc(NC(C)=O)cc3)n2)cc1", "values": [{"measurement": "survivor count", "setting": "dose: 120.0 mg/kg/injection, schedule: Q01DX005 (ip), vehicle: Klucel (hydroxypropylcellulose) (HPC)", "result": "6 of 6"}]}
{"compound": "NC1=NCc2c(sc3c2CCCC3)N1", "values": [{"measurement": "survivor count", "setting": "dose: 100.0 mg/kg/injection, schedule: Q01DX005 (ip), vehicle: Klucel (hydroxypropylcellulose) (HPC)", "result": "0 of 6"}, {"measurement": "survivor count", "setting": "dose: 200.0 mg/kg/injection, schedule: Q01DX005 (ip), vehicle: Klucel (hydroxypropylcellulose) (HPC)", "result": "1 of 6"}]}
{"compound": "CC(C)(C)SSCCN", "values": [{"measurement": "survivor count", "setting": "[3]", "result": "0 of 5"}]}
{"compound": "O=S(=O)(Nc1ccccn1)c1ccc(N=Cc2c3ccccc3nc3cc(Cl)ccc23)cc1", "values": [{"measurement": "survivor count", "setting": "[3]", "result": "6 of 6"}]}
{"compound": "NCCN(Cc1ccccc1)C1CC1", "values": [{"measurement": "survivor count", "setting": "dose: 200.0 mg/kg/injection, schedule: Q01DX009 (ip), vehicle: saline", "result": "0 of 6"}]}
